# Laboratory results from patent publication US12268227B2, “Production of flavor concentrates by osmosis” (SYMRISE AG, priority 2017, dated 2025).
# Assay: Sensory recovery coefficient (SWF) and W parameter
# Settings: not given
row,SMILES,W = log (SWF)
1,CCCO [propanol],−3.24
2,CC=O [acetaldehyde],−1.98

# Same assay, conditions: log10 of SWF
row,SMILES,W = log (SWF)
1,CCCCC1CCC(=O)O1 (stereo not shown) [gamma-octalactone],0.71
2,CCC=O [propanal],−1.75
3,C=CC(C)(O)CCC=C(C)C (stereo not shown) [linalool],0.72
4,CO [methanol],−5.93
5,CCCCCC(=O)OCC [ethyl hexanoate],1.71
6,CC(C)=CCC/C(C)=C/C=O [geranial],0.68
7,CCOC(C)=O [ethyl acetate],−2.76
8,CCCCCC=O [hexanal],0.65
9,"CC(=O)C(C)=O [2,3-butanedione]",−2.24
10,"CCC(=O)C(C)=O [2,3-pentanedione]",−0.54
11,CCCC(=O)OCC [ethyl butanoate],1.49
12,CC(=O)O [acetic acid],−5.48
13,CCCCCC(=O)O [hexanoic acid],−1.79
14,CCC(C)C=O (stereo not shown) [2-methylbutyraldehyde],1.45
